Data: the supplement of paper PMC10849652
Some of the results follow.

Chains of the proteins cited; added tags and fusions are not shown. Lines headed by an entry give the natural chain unless they say otherwise; changes in a name come on top.
UniProt Q7Z7A1: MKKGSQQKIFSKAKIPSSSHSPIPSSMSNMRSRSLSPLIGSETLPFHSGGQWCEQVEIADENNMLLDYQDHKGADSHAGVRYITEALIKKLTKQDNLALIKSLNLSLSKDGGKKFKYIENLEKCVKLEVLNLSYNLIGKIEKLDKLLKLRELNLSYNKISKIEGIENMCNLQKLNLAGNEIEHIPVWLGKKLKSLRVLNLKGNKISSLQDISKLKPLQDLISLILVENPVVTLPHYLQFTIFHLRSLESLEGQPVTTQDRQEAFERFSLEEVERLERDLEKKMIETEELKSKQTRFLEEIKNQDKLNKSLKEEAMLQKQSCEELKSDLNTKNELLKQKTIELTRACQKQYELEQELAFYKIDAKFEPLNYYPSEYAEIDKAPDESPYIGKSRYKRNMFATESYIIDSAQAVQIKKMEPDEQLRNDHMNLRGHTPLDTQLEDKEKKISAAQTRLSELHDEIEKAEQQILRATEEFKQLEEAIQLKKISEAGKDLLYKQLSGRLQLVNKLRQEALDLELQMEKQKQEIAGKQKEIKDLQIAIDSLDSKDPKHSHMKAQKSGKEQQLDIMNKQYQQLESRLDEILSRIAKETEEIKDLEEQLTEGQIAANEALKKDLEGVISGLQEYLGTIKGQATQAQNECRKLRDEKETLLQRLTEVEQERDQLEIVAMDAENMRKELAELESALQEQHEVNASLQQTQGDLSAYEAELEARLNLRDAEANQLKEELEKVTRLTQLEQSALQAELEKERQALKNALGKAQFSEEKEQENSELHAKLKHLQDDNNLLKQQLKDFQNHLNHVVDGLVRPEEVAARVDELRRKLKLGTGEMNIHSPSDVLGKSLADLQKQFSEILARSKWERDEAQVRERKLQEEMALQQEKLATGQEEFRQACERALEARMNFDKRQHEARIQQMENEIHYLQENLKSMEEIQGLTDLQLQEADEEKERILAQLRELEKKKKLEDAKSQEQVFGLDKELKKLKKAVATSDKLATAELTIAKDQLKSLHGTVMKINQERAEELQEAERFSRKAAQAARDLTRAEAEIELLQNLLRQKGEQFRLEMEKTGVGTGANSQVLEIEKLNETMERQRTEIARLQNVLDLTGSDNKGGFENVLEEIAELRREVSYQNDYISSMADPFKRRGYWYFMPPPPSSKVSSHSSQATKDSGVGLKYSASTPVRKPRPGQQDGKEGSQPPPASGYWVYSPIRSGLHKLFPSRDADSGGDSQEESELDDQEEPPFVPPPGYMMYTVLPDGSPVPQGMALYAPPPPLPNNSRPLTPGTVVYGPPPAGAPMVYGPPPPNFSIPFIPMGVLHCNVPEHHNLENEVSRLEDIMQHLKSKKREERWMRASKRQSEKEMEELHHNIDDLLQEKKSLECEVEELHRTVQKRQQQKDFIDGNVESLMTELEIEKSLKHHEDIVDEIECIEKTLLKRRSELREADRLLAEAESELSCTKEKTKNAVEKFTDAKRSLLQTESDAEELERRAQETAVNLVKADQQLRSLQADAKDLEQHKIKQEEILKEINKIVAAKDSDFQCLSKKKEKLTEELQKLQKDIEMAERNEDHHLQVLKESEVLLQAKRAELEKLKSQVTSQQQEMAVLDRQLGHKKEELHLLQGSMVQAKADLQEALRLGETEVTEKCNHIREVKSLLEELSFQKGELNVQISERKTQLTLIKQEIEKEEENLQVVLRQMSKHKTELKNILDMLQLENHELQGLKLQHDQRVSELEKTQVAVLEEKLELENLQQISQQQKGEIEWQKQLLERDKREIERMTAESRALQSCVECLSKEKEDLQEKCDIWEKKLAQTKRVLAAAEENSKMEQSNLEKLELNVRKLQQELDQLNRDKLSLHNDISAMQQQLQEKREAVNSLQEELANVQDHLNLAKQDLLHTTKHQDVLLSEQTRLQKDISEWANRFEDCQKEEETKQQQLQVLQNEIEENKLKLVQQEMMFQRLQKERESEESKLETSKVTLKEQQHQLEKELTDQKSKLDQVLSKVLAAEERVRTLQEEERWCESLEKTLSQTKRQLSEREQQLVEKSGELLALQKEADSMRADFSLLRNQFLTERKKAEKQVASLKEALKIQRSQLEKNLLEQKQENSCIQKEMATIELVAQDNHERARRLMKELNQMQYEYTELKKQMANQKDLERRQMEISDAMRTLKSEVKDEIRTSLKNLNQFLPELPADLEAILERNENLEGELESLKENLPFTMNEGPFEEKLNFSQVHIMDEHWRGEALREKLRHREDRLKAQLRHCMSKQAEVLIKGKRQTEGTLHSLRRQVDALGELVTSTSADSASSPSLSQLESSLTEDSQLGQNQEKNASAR
UniProt Q9Y3Y2: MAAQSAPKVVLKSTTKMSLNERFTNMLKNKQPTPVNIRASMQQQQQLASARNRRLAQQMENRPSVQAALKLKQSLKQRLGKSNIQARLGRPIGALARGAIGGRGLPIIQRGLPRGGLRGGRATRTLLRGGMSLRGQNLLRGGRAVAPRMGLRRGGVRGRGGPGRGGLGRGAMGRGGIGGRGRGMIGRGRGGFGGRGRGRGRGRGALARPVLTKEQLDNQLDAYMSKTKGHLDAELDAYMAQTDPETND
UniProt Q86WW8: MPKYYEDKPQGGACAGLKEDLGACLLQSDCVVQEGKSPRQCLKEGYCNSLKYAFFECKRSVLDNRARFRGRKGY
UniProt Q8N9A8: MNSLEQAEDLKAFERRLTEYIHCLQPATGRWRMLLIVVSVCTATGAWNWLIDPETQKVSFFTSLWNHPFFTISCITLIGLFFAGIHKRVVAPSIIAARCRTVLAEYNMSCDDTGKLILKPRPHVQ
UniProt P56277: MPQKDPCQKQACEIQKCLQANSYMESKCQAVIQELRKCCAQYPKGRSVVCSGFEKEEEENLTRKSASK
UniProt Q9NYJ1, whole entry, looked up: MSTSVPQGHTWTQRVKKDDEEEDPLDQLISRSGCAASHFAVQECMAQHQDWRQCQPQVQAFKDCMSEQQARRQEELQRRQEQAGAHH
UniProt P51801: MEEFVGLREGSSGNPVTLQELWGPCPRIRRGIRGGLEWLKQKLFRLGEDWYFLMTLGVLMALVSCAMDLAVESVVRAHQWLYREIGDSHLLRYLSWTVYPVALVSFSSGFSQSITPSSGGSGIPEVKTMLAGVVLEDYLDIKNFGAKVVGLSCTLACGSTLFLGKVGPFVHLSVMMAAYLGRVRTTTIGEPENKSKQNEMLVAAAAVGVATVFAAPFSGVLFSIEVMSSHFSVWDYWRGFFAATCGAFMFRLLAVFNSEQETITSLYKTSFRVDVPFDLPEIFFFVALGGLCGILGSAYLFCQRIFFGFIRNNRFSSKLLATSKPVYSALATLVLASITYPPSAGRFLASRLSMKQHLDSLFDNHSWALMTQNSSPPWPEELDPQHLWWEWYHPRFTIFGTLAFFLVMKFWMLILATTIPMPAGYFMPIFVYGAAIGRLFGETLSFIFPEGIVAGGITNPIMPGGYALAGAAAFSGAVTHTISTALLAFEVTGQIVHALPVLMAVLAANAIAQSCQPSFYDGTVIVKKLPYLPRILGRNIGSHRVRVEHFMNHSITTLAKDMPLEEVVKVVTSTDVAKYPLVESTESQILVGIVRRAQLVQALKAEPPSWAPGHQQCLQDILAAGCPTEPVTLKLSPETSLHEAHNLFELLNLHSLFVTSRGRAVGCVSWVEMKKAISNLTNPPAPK
UniProt Q9Y3D0: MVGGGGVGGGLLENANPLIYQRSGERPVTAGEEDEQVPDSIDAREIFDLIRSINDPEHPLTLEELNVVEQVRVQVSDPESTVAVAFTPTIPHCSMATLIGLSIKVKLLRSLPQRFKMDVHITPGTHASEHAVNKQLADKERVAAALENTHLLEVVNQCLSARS
UniProt Q9H9E3: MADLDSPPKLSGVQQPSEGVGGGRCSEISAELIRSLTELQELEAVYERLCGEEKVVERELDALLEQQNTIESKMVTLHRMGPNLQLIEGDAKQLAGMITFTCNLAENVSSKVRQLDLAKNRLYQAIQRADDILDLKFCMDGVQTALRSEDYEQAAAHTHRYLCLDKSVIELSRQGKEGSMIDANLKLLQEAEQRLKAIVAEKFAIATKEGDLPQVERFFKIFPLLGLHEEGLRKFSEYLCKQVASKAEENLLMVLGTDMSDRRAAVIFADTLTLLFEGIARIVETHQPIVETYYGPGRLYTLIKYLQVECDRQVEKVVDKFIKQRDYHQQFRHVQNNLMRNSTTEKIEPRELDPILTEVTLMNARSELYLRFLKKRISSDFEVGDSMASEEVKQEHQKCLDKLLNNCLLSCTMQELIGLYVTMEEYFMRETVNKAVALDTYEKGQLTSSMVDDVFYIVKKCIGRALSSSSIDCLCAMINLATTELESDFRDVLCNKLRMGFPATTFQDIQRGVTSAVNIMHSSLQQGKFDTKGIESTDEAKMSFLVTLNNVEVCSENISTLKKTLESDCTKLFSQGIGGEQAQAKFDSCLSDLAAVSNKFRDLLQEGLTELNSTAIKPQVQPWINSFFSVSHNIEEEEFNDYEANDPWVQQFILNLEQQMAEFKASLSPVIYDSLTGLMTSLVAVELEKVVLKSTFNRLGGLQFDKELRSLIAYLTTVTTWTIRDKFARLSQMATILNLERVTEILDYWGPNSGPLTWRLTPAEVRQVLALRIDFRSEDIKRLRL
UniProt Q8WTW3: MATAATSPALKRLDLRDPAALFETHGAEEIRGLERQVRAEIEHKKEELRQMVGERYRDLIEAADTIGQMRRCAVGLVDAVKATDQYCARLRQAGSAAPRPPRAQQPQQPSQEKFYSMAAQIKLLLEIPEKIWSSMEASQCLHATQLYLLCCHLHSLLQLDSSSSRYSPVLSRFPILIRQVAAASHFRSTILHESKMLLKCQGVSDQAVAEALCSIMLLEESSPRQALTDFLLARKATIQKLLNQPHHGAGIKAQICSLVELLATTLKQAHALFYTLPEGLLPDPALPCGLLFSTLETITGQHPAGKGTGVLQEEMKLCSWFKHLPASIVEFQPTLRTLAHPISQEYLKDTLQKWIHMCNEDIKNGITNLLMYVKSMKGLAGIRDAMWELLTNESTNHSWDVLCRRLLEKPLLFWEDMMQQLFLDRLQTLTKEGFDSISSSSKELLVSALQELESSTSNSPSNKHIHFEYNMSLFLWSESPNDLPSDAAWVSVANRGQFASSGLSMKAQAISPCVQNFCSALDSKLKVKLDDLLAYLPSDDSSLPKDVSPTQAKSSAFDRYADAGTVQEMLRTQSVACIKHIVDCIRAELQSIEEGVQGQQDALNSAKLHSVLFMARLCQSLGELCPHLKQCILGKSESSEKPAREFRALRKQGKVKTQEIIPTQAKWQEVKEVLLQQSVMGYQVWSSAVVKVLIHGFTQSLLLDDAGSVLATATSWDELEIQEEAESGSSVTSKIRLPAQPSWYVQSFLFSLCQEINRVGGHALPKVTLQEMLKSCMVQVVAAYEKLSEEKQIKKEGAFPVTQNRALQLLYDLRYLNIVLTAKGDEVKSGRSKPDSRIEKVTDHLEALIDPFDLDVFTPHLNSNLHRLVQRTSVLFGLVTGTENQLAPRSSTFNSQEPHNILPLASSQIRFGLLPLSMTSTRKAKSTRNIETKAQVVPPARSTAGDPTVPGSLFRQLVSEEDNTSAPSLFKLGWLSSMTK
UniProt O75503: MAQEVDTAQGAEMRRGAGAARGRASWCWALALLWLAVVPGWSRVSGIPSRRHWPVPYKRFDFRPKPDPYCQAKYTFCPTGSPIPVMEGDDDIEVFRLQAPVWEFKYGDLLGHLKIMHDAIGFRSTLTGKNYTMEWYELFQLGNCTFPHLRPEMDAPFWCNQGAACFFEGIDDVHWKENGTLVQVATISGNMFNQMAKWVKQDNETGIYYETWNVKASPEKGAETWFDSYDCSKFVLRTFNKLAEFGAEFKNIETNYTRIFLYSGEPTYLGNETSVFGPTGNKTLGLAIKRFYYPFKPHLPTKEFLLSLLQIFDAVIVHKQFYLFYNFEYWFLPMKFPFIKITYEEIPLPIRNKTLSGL
UniProt Q8N2M8: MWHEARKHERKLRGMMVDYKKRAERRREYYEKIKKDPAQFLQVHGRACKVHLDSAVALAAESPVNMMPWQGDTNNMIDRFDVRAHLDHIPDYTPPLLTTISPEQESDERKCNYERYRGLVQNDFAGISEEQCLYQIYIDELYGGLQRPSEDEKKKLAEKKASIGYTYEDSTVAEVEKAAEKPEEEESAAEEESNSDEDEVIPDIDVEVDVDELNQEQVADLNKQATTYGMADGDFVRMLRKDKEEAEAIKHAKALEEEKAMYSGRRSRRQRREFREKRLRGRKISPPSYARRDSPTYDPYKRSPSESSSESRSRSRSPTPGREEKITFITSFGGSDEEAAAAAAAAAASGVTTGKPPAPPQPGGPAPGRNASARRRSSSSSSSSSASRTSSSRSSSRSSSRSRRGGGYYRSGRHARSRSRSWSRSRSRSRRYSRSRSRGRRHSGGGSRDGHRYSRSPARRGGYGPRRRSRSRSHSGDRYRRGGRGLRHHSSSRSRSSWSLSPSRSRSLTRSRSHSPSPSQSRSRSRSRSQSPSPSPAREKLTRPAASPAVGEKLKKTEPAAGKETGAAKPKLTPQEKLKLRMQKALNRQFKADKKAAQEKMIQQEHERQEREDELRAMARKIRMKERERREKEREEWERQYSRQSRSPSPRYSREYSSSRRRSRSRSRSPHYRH

Compound: c1ccc([C@@H]2C[C@H]2NC2CCNCC2)cc1
Test: log2 fold change, soluble protein after heating vs DMSO (PISA); higher = thermal stabilisation; K562 cells, 10 uM, 30 min; active = over 0.2 and 3.5 SD of the protein, either way, in both replicates (recomputed)
In short: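 K562 cells at 2×10^6 cells/mL were exposed to 10 μM compound for 30 min, then aliquots were heated for 3 min across 48°C-58°C, pooled, and extracted in PBS containing 0.5% NP-40 at 4°C. The supernatant after 21,000xg for 90 min was taken as soluble protein and measured by TMTpro 16plex LC-MS/MS with channel sums equalised. Thermal stability is reported relative to control samples, with values from duplicates. Fold changes are given on a log2 scale.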

| Target | log2 fold change |
| --- | --- |
| COG8 (UniProt Q96MW5) | inactive: 0 |
| COG2 (UniProt Q14746) | inactive: -0.004 |
| CHUK (UniProt O15111) | inactive: -0.093 |
| CLASP2 (UniProt O75122) | inactive: -0.222 |
| CNTRL (UniProt Q7Z7A1) | inactive: 0.046 |
| CHTOP isoform 3 (UniProt Q9Y3Y2) | inactive: -0.052 |
| CHST2 (UniProt Q9Y4C5) | inactive: 0.006 |
| COA5 (UniProt Q86WW8) | inactive: -0.004 |
| CNEP1R1 isoform 2 (UniProt Q8N9A8) | inactive: 0.114 |
| COG7 (UniProt P83436) | inactive: -0.075 |
| CMC4 (UniProt P56277) | inactive: -0.013 |
| CHST10 (UniProt O43529) | inactive: 0.044 |
| COA4 isoform 2 (UniProt Q9NYJ1) | inactive: 0.034 |
| CNBP (UniProt P62633) | inactive: 0.085 |
| CKAP2 (UniProt Q8WWK9) | inactive: 0.122 |
| CLCNKB (UniProt P51801) | inactive: 0.101 |
| CKAP4 (UniProt Q07065) | inactive: -0.02 |
| CLCN5 isoform 2 (UniProt P51795) | inactive: -0.053 |
| CLP1 (UniProt Q92989) | inactive: 0.047 |
| CIAO2B (UniProt Q9Y3D0) | inactive: 0.267 |
| CMYA5 (UniProt Q8N3K9) | inactive: 0.187 |
| COG4 (UniProt Q9H9E3) | inactive: -0.039 |
| CHPT1 (UniProt Q8WUD6) | inactive: 0.11 |
| CLSTN1 (UniProt O94985) | inactive: 0.002 |
| COG6 (UniProt Q9Y2V7) | inactive: 0.069 |
| COG1 (UniProt Q8WTW3) | inactive: -0.04 |
| CHMP7 (UniProt Q8WUX9) | inactive: 0.107 |
| CLN5 (UniProt O75503) | inactive: -0.296 |
| CNN1 (UniProt P51911) | inactive: 0.156 |
| CLASRP (UniProt Q8N2M8) | inactive: 0.14 |

2 entries from above in a different format.
CLCNKB (UniProt P51801)
  log2 fold change: inactive: 0.101
CKAP4 (UniProt Q07065)
  log2 fold change: inactive: -0.02
